Laboratory results taken from patent US11491206B1, “Compositions and methods for the treatment of trail-resistant cancer” (Duke University, priority 2018, dated 2022).
Some results were stated once for a whole list of compounds, not compound by compound.

Key:
RKO cells = assay: Single-agent cytotoxicity (MTT) in RKO; assay type: cell-based, human; details: read-out: sensitivity (resistant)
Description: For single-agent cytotoxicity evaluation, DRA and ELP-DRA fusion proteins were tested in vitro using a colorimetric formazan assay (MTT) as follows. […] The cells were then treated with 10 μL additional media containing a serial dilution of the drug(s) of interest. All treatments were done in triplicate. […] The inhibition of cell viability was determined using measurements of the absorbance at 490 nm, which is the absorbance maximum of the formazan product. The dose-response curves were generated by plotting inhibition as a function of compound concentration.

Colo320HSR = assay: Single-agent cytotoxicity (MTT) in Colo320HSR; assay type: cell-based, human; details: read-out: sensitivity (resistant)
[1] = test system: human embryonic kidney (HEK-293T), smooth muscle, and primary patient derived platelet cells; assay: Toxicity of DRA with or without BV6 and WEHI-539 in normal human cells; assay type: cell-based; details: platelets vs tumor cells

B1: DRA: hexameric protein of Tn3 fibronectin type III domains (SEQ ID NO: 1) binding DR5, joined by glycine-serine linkers (protein)
chain: GAIEVKDVTDTTALITWAKPWVDPPPLWGCELTYGIKDVPGDRTTIDLQQKHTAYSIGNLKPDTEYEVSLICFDPYGMRSKPAKETFTTGGGGSGGGGSGGGGSGAIEVKDVTDTTALITWAKPWVDPPPLWGCELTYGIKDVPGDRTTIDLQQKHTAYSIGNLKPDTEYEVSLICFDPYGMRSKPAKETFTTGGGGSGGGGSGGGGSGAIEVKDVTDTTALITWAKPWVDPPPLWGCELTYGIKDVPGDRTTIDLQQKHTAYSIGNLKPDTEYEVSLICFDPYGMRSKPAKETFTTGGGGSGGGGSGGGGSGAIEVKDVTDTTALITWAKPWVDPPPLWGCELTYGIKDVPGDRTTIDLQQKHTAYSIGNLKPDTEYEVSLICFDPYGMRSKPAKETFTTGGGGSGGGGSGGGGSGAIEVKDVTDTTALITWAKPWVDPPPLWGCELTYGIKDVPGDRTTIDLQQKHTAYSIGNLKPDTEYEVSLICFDPYGMRSKPAKETFTTGGGGSGGGGSGGGGSGAIEVKDVTDTTALITWAKPWVDPPPLWGCELTYGIKDVPGDRTTIDLQQKHTAYSIGNLKPDTEYEVSLICFDPYGMRSKPAKETFTTGGGGSGGGGSGGGGSHHHHHHHH
In the case of B1, the EC50 (RKO cells) is reported as over 100 nM, the EC50 (Colo320HSR) is reported as over 100 nM and the “EC50 for DRA in normal cells relative to tumor cells” value [1] is reported as “at least 10 fold”.
